Consider 8 compounds from PubChem BioAssay AID330 (DTP/NCI, 2004).

The list is a part of this screen's results and no random one: it gathers tests that were run many times, whatever their T/C, doses with no T/C, and many T/C values between a quarter and a half above the control. Further doses and runs are listed elsewhere. T/C: endpoint of the treated group in % of that of the vehicle group. Some doses have a count of surviving animals in place of a T/C: the source holds a T/C of zero for them, seemingly a mark for toxic or unscored doses. Some survivor counts are full or nearly so, which does not show that the dose was tolerated: survival well below the control is almost never listed, so the zero probably covers shortened survival too. Survivors were counted at the toxicity check, usually on the fifth day, unless a day is given; later deaths do not show. Schedules are NCI's codes, read here as Q, the interval in days (D) or hours (H), X, the number of doses. Where survival is the endpoint, this PubChem deposit counts one and a half times the control or more as active, and values a quarter to a half above the control carry no call in these data; other NCI protocols may use other cut-offs.

The test system of this assay is P388 leukemia ip, CD2F1 mice, survival T/C. As to the kind of experiment: NCI In Vivo Anticancer Drug Screen. Data for tumor model P388 Leukemia (intraperitoneal) in CD2F1 (CDF1) mice. The note with it: T/C endpoint: median survival time, higher T/C = longer survival.
Setting [1] is: dose: 240.0 mg/kg/injection, schedule: Q01DX005 (ip), vehicle: saline.
[2] abbreviates: dose: 100.0 mg/kg/injection, schedule: Q04DX003 (ip), vehicle: saline with Tween-80.
The mark [3] stands for this setting: dose: 200.0 mg/kg/injection, schedule: Q04DX003 (ip), vehicle: saline with Tween-80.
[4] abbreviates: dose: 400.0 mg/kg/injection, schedule: Q04DX003 (ip), vehicle: saline with Tween-80.

With `COC(=O)C1=[N+]([O-])[N+]([O-])=C(C(=O)OC)C1=O`, the survivor count (dose: 50.0 mg/kg/injection, schedule: Q01DX009 (ip), vehicle: Klucel (hydroxypropylcellulose) (HPC)) was 2 of 6.

In the case of `CCN(CC)[Si](C)(C)C`, the survivor count under setting [1] is 0 of 6.

For the compound `O=C(Nc1ccc(Cl)cc1)Nc1nnc2ncc3c(n12)CCCCCCCCCC3`, under “dose: 240.0 mg/kg/injection, schedule: Q01DX005 (ip), vehicle: saline with Tween-80”, the survivor count is 6 of 6.

With `COC(=O)CCc1ccc(NP(=O)(N2CC2)N2CC2)cc1`, the T/C is 130 % of control (dose: 50.0 mg/kg/injection, schedule: Q01DX009 (ip), vehicle: saline with Tween-80); 140 % of control (dose: 50.0 mg/kg/injection, schedule: Q04DX003 (ip), vehicle: saline with Tween-80); 143 % of control under setting [2]; 145 % of control under setting [3]. Moreover, the survivor count under setting [4] is 6 of 6.

Regarding `CNC(=O)O/N=C(\SC)C(=O)N(C)C`, the survivor count runs as follows: (dose: 3.5 mg/kg/injection, schedule: Q01DX005 (ip), vehicle: saline) 0 of 6; (dose: 7.5 mg/kg/injection, schedule: Q01DX005 (ip), vehicle: saline) 0 of 6; (dose: 15.0 mg/kg/injection, schedule: Q01DX005 (ip), vehicle: saline) 0 of 6; (dose: 30.0 mg/kg/injection, schedule: Q01DX005 (ip), vehicle: saline) 0 of 6; (dose: 60.0 mg/kg/injection, schedule: Q01DX005 (ip), vehicle: saline) 0 of 6; (dose: 120.0 mg/kg/injection, schedule: Q01DX005 (ip), vehicle: saline) 0 of 6. The survivor count under setting [1] is reported as 0 of 6.

Consider `CN(C)CC[N+](C)(C)Cc1ccc(C[N+](C)(C)CC[N+](C)(C)Cc2ccc(CCl)cc2)cc1`, for which the survivor count is, setting by setting: under setting [2], 2 of 6; under setting [3], 0 of 6; under setting [4], 0 of 6.

Take `CCN(CCCN(C)C)c1ccc(/C=C/c2ccnc3ccccc23)cc1`: the survivor count runs as follows: (dose: 200.0 mg/kg/injection, schedule: Q01DX009 (ip), vehicle: saline) 0 of 6; (dose: 400.0 mg/kg/injection, schedule: Q01DX009 (ip), vehicle: saline) 0 of 6.

Turning to `CC(=O)/C(=C\c1cccs1)C(=O)CCN(C)C`, the T/C under setting [1] is 129 % of control. Under “dose: 480.0 mg/kg/injection, schedule: Q01DX005 (ip), vehicle: saline”, the survivor count is listed as 2 of 6.
